Source: EP4000618A1, “COMBINATION OF AT LEAST ONE INHIBITOR OF THE XC TRANSPORTER WITH AT LEAST ONE INHIBITOR OF MEMBRANE-BOUND CATALASE FOR INHIBITING AND / OR INACTIVATING TUMOR CELLS” (Motz, Manfred, priority 2020, dated 2022)
“Also recorded” adds a separate entry of the source. For at least one compound, name, drawing or mass did not settle the structure.

Tested on: humanen Magenkarzinomzellen (MKN-45)
Experiment: Apoptosis induction in MKN-45 tumour cells after catalase inhibition; percentage of cells with apoptosis features counted by phase-contrast microscopy
Format: cell-based, human
Excerpt: Erfindungsgemäß wurden verschiedene Experimente mit humanen Magenkarzinomzellen (MKN-45) durchgeführt. Die experimentellen Einzelheiten der Versuche sind in der Literaturstelle Heinzelmann und Bauer, Biol. Chem. (2010) 391, S. 675-693 detailliert beschrieben. Auf die experimentelle Ausgestaltung wird hiermit ausdrücklich verwiesen.
In der Literaturstelle Heinzelmann und Bauer sind die Herkunft der jeweiligen Zellen, deren Anzuchtbedingungen, die Apoptoseinduktion und deren Messung beschrieben. Die membranständige Katalase wurde mit 3-Aminotriazol (3-AT) gehemmt. Spezifische Inhibitoren, die die Differenzierung zwischen dem reaktiven NO/Peroxynitritweg und dem HOCI-Weg erlauben, sind weiterhin in der Literaturstelle Heinzelmann und Bauer (a.a.o.) offenbart. Bei den einzelnen Auswertungen wurde die Apoptoseinduktion über die Quantifizierung des Prozentsatzes derjenigen Zellen bestimmt, die die Apoptosemerkmale Kernkondensation, Kernfragmentation und/oder Membrane-Blebbing aufwiesen. Die Quantifizierung erfolgte jeweils mit Hilfe eines Phasenkontrast-Umkehrmikroskops.

Nc1nc[nH]n1 [3-AT, 3-Aminotriazol]
Kinetik der Apoptoseinduktion (3-AT 100 mM (Figur 2A)): linearen Anstieg der Apoptoseinduktion
Lag-Phase (3-AT 100 mM (Figur 2A)): ca. 60 min
Apoptoseinduktion (3-AT alone, concentration series, cells not pretreated (Figur 1A, 6A)): konzentrationsabhängig zur Apoptoseinduktion; also recorded: vor allem durch höhere Konzentrationen 3-AT ausgelöst
Lag-Phase (1 h preincubation with 100 mM 3-AT, wash, 3-AT again (Figur 3A)): ohne eine vorausgehende weitere Lag-Phase; also recorded: Verkürzung der nachfolgenden Kinetik der Apoptoseinduktion um eine Stunde
Lag-Phase (1 h preincubation without 3-AT, wash, then 3-AT (Figur 3A)): einstündige Lag-Phase
